The values below come from publication PMC9751115.

By UniProt entry, the sequences of proteins in these tests, tags left out. Where a name states a change or a piece, a line headed by the entry shows the natural chain unless it says otherwise. Chains listed by the source or under a name are the forms on record and can include a tag or linker. Residues count along the entry.
UniProt P61586: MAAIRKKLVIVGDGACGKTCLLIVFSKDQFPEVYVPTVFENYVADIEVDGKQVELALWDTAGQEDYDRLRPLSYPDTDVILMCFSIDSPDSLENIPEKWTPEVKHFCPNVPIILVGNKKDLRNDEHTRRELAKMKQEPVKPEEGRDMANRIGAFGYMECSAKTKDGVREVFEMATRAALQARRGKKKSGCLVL
HA-tagged active RhoA (HA-L63RhoA), expressed in 1321N1 astrocytoma cells (P61586, form named): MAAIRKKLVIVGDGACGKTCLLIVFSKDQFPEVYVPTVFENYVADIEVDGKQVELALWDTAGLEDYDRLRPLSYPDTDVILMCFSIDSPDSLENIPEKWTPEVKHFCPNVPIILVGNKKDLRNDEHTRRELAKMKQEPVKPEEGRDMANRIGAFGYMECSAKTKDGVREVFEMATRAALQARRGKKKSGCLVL
UniProt Q9BXM7, residues 78-581: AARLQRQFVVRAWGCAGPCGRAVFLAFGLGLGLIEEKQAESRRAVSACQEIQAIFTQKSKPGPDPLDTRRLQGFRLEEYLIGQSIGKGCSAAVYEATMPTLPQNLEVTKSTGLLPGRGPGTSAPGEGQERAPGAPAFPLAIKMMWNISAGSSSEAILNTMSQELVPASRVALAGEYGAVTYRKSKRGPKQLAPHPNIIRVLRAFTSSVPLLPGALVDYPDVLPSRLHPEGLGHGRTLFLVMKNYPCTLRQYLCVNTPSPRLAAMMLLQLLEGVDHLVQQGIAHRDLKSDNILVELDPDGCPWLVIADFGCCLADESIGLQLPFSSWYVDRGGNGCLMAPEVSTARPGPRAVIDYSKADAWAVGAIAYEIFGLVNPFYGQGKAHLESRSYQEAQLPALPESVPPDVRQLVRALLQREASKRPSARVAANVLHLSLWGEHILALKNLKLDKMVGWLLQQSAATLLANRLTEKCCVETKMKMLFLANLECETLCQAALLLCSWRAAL

The assay concerns the target HA-tagged active RhoA (HA-L63RhoA), expressed in 1321N1 astrocytoma cells (UniProt P61586). Put plainly: co-IP; mitochondrial fractions of 1321N1 astrocytoma cells infected with GFP or RhoA adenovirus; RhoA immunoprecipitated; WB for RhoA and endogenous PINK1.

These are yes or no findings as the source states them, for the method shown. Binding seen in cells or lysates may run through a third protein. Some results given as binding are weak or reduced against the parent protein; the word gives no strength.

For “endogenous PINK1 of 1321N1 human astrocytoma cells (from UniProt Q9BXM7 78-581)”, the binding entry is “binds”.
